These are yes or no findings as the source states them, for the method shown. Sequences can lack the tags named with a protein.
Target: T1, Soluble LolB, N-terminally His-tagged (E. coli) (UniProt P61320)
T1 sequence: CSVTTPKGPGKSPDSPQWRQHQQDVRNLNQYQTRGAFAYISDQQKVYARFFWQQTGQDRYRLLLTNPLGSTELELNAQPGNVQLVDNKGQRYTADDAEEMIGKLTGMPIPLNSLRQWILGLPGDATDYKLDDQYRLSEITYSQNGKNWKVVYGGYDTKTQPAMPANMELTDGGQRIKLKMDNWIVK
Assay: pull-down; TolC-FLAG mixed with N-terminally His-tagged YbjPs or LolBs, each 15 µM, then bound to Ni resin; 50 mM Tris pH 7.5, 200 mM NaCl, 0.03% β-DDM; four washes, elution with 250 mM imidazole, SDS-PAGE; both purified

Protein sequences, listed by entry. Tags and fused reporters are not part of them. Residues count along the entry.
UniProt P02930, residues 23-493: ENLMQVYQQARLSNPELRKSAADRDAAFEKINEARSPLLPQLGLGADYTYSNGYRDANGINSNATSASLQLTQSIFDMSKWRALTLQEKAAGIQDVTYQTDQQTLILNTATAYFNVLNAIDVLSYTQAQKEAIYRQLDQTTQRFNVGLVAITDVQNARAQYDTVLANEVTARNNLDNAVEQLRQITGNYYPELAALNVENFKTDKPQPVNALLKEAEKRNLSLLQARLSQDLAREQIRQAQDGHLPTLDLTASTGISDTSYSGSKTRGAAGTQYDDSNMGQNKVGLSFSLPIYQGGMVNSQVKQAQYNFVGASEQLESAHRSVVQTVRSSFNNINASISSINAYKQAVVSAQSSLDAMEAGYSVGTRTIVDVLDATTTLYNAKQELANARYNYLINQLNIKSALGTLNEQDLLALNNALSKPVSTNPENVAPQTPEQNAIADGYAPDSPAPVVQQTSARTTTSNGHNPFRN

- binding: no binding (tested: 15 µM)
Substance: Detergent-purified FLAG-tagged TolC (from UniProt P02930 23-493)
